Values from PubChem BioAssay AID1259424 (University of Nebraska Medical Center, 2018)

Assay: 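Rank knockdowns across the genome by resemblance to the KSR1 depletion profile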 (primary screen)
Cells: human HCT116 colon cancer cells
Knock-down reagent: siRNA pool against human genes, 50 nM
Measured: 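Six signature mRNAs by branched-DNA multiplex assay, scaled to two housekeeping genes and non-targeting median, log2; matched to mean KSR1 knockdown profile by Pearson correlation and euclidean distance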
Direction: mean correlation with KSR1 profile: higher = expression change more like KSR1 knockdown
The deposit covers about 14,000 reagents; this is a random part of them. 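Higher correlation or smaller distance means closer resemblance to KSR1 loss; control wells, including KSR1 knockdowns, recur on many plates.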 Further read-outs or replicates are left out here. The record does not give: the time to read-out.

gene symbol	mean correlation with KSR1 profile
PTPMT1 (GeneID 114971)	-0.489
MEF2C (GeneID 4208)	-0.00209
KRT10 (GeneID 3858)	-0.29
ZNF385A (GeneID 25946)	-0.309
GABRB3 (GeneID 2562)	-0.344
MAML1 (GeneID 9794)	-0.248
PIAS4 (GeneID 51588)	-0.013
MYO1G (GeneID 64005)	0.15
MED25 (GeneID 81857)	0.0592
STK4 (GeneID 6789)	0.233
CKMT1B (GeneID 1159)	0.0469
APBA2 (GeneID 321)	-0.0817
SAP30L (GeneID 79685)	-0.559
NIPSNAP3B (GeneID 55335)	-0.751
SLC22A13 (GeneID 9390)	-0.246
NHERF1 (GeneID 9368)	0.269
HMGXB4 (GeneID 10042)	0.625
RAC2 (GeneID 5880)	-0.246
FOXK2 (GeneID 3607)	-0.516
PITX2 (GeneID 5308)	-0.296
RAB36 (GeneID 9609)	0.0681
SIAH1 (GeneID 6477)	0.332
OGFOD1 (GeneID 55239)	-0.429
LANCL1 (GeneID 10314)	0.664
RBPMS (GeneID 11030)	0.382
CCN1 (GeneID 3491)	-0.788
PSG9 (GeneID 5678)	0.722
KIAA0087 (GeneID 9808)	0.02
CCDC33 (GeneID 80125)	0.234
SGCA (GeneID 6442)	-0.202
SRY (GeneID 6736)	0.739
FBXL5 (GeneID 26234)	-0.164
PAIP1 (GeneID 10605)	-0.784
SRCAP (GeneID 10847)	-0.637

Part of the list above, reformatted:
gene symbol | mean correlation with KSR1 profile
KIAA0087 (GeneID 9808) | 0.02
CCDC33 (GeneID 80125) | 0.234
SGCA (GeneID 6442) | -0.202
SRY (GeneID 6736) | 0.739
